# Counter-ions that a name gives are not always drawn. The list shows a part of the results. Repeats are few or missing, and single values can be far off.
# Tested on: primary mouse Muller glia with Ascl1 overexpression
# Experiment: Neuronal cell count fold change vs Ascl1-only control (log2 fold change); higher = more neurogenesis
# Protocol: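 Primary P11 mouse Muller glia carrying dox-inducible Ascl1 were treated with Tocriscreen Stem Cell Library compounds at 0.1, 1 or 10 uM together with doxycycline for 5 days, then profiled by sci-Plex hashing and sci-RNA-seq2. Cells were annotated by marker genes and cell-type counts per well were size-factor adjusted. Read-outs are the log2 fold change of Neuronal (NeuPre + bipolar) and ProL cell counts versus the Ascl1-only control wells of the same collection day, plus the raw number of recovered cells per well. There is one well per dose, and wells with fewer than 20 cells were discarded.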
SMILES,Neuronal cell count fold change (0.1 µM),Neuronal cell count fold change (1 µM),Neuronal cell count fold change (10 µM)
Oc1nc(-c2ccc(C(F)(F)F)cc2)nc2c1CSCC2 (collection day: 2),-0.379,-0.7,-0.379
CN(C)C(=N)NC(=N)N [Metformin hydrochloride] (collection day: 1),-0.184,-0.322,-0.556
Nc1ncn([C@H]2C[C@H](O)[C@@H](CO)O2)c(=O)n1 [Decitabine] (collection day: 1),-0.474,-0.184,-0.556
Cc1c(C)c2c(c(C)c1O)CCC(C)(COc1ccc(CC3SC(=O)NC3=O)cc1)O2 (stereo not given) [Troglitazone] (collection day: 1),0,–,–
O=C(O)CCCc1ccccc1 [Sodium 4-Phenylbutyrate] (collection day: 1),-0.474,0.263,-0.252
Nc1nc(N)c2nc(-c3cccc(Cl)c3)c(N)nc2n1 [Epiblastin A] (collection day: 2),0,-0.115,-0.115
O=S(=O)(NCCNC/C=C/c1ccc(Br)cc1)c1cccc2cnccc12 [H 89 dihydrochloride] (collection day: 1),-0.184,-0.943,–
COc1cccc(-c2cc(=O)c3ccccc3o2)c1N (collection day: 1),-0.737,-0.322,-0.12
O=C(NO)c1ccc2[nH]c(=O)c(CCCc3ccccc3)nc2c1 (collection day: 2),-0.379,-1.12,-1.7
CCn1c(=O)[nH]c2ccccc21 (collection day: 1),-0.184,-0.474,-0.12
Nc1[nH]ncc1-c1cc(Cl)ccc1Oc1cc(F)c(S(=O)(=O)Nc2cscn2)cc1Cl (collection day: 2),-0.7,-0.115,-1.7
CNC1CCC(N(Cc2cc(-c3ccncc3)ccc2OC)C(=O)c2sc3c(F)ccc(F)c3c2Cl)CC1 (stereo not given) (collection day: 2),0.206,0.107,–
CC(ONC(=O)c1cc(C(F)(F)F)cc(C(F)(F)F)c1)C(=O)Nc1ccc(Cl)cc1 (stereo not given) (collection day: 2),0.107,-0.115,–
O=C(NNc1ccccc1)c1ccncc1 [PluriSln 1] (collection day: 2),0.206,0,-0.115
"CCCC(CCC)C(=O)O [Valproic acid, sodium salt] (collection day: 1)",-0.556,-0.474,-0.396

# Sorted by length of the SMILES (falling): part of the list above
SMILES,Neuronal cell count fold change (0.1 µM),Neuronal cell count fold change (1 µM),Neuronal cell count fold change (10 µM)
CC(ONC(=O)c1cc(C(F)(F)F)cc(C(F)(F)F)c1)C(=O)Nc1ccc(Cl)cc1 (stereo not given) (collection day: 2),0.107,-0.115,–
CCn1c(=O)[nH]c2ccccc21 (collection day: 1),-0.184,-0.474,-0.12
CN(C)C(=N)NC(=N)N [Metformin hydrochloride] (collection day: 1),-0.184,-0.322,-0.556
